Data from PMC9854190.
No constants are given. Whether binding was seen depends on the method and setting. In cells and extracts the contact can be indirect. A result given as binding can be weak or reduced; the word gives no strength. Where a sequence is shown, tags or fusion partners need not be part of it.

Molecular target: T1, FLAG-USP33 (UniProt Q8TEY7)
T1 sequence: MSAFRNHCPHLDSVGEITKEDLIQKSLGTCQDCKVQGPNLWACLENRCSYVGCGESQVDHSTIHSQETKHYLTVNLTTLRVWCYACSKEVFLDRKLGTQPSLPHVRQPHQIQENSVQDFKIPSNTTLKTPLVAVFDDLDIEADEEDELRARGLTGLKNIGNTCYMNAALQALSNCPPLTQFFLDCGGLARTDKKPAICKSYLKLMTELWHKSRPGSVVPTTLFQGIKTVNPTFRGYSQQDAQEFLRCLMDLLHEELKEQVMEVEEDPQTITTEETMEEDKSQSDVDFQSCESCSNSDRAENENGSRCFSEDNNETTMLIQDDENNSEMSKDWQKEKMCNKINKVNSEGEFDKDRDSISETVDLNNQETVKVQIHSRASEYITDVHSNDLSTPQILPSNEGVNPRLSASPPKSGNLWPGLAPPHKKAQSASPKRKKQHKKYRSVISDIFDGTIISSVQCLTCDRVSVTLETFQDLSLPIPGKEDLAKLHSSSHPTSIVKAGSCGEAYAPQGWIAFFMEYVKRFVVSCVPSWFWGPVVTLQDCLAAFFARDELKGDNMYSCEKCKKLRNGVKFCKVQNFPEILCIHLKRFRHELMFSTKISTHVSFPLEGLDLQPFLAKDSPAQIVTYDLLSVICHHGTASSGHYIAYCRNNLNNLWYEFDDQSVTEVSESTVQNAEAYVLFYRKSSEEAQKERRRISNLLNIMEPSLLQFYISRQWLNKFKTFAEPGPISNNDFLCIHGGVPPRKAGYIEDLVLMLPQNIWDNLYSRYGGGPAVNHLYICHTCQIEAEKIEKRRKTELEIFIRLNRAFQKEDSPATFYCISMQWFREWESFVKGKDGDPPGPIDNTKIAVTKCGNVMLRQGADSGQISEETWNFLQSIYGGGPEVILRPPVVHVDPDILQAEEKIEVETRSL
Assay: co-IP; HEK-293 cells expressing D3R, transfected; treated with vehicle, 30 nM DA or 100 nM quinpirole (once or washed and re-challenged, desensitization protocol); also Con-KD and Mdm2-KD cells; RIPA lysates, anti-M2 FLAG agarose beads overnight at 4 °C; co-IP blotted for HA or importin β1

## HA-Akt (enzyme)
  binding: binds
